Data as given in PubChem BioAssay AID652243 (Drosophila RNAi Screening Center, 2013)
Aim: 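Knock-downs that decrease or increase androgen receptor reporter signal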 (primary screen). System: Drosophila S2R+ cells. Reagents: long dsRNA against Drosophila genes. Time to read-out: 72 h (48 h, then 24 h hormone). Challenge: synthetic androgen R1881 at 10 nM for 24 h. Detection: 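Per-well raw luminescence of the androgen-driven firefly reporter and of the Renilla control, two replicates each, without normalisation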. Reading the numbers: firefly reporter light: higher = more light from androgen-responsive reporter; Renilla control light: higher = more constitutive control signal (cell number, transfection). Active means: 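Hit when the log firefly-to-Renilla ratio dropped or increased by a fixed fold versus the mean of GFP or LacZ controls across duplicate plates; lowering cut given as 1.5 and as 3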. Calls: active = hit: reporter lowered or raised; inactive = no hit.
In all, the deposit lists about 24,000 reagents; this is a random part of those that have a named target and a result. Of all reagents, 246 (1%) were called active. 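Plates not normalised; calls are printed but the firefly/Renilla ratio behind them is not deposited; fold cut for lowering reported inconsistently.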 The raw values are shown without normalisation. Not given: the amount of reagent.

| gene | dsRNA | firefly reporter light, replicate 1 | firefly reporter light, replicate 2 | Renilla control light, replicate 1 | Renilla control light, replicate 2 | outcome |
| --- | --- | --- | --- | --- | --- | --- |
| C15 | DRSC13495 | 2.06e5 | 1.67e5 | 5.57e5 | 5.22e5 | inactive |
| RacGAP84C | DRSC12630 | 2.02e5 | 2.14e5 | 4.16e6 | 3.56e6 | inactive |
| ArgRS-m | DRSC14186 | 2.05e5 | 2.62e5 | 1.73e6 | 1.63e6 | inactive |
| Aldh-III | DRSC06047 | 7.58e5 | 9.05e5 | 1.40e6 | 1.98e6 | inactive |
| Aldh-III | DRSC26578 | 9.89e5 | 9.08e5 | 6.12e5 | 8.87e5 | inactive |
| CG5726 | DRSC06946 | 3.13e5 | 3.38e5 | 1.40e6 | 1.24e6 | inactive |
| CG5726 | DRSC25145 | 6.28e5 | 6.96e5 | 7.81e5 | 8.87e5 | inactive |
| CG34382 | DRSC10166 | 1.70e5 | 1.55e5 | 1.57e6 | 1.93e6 | inactive |
| CG34382 | DRSC10167 | 1.38e5 | 1.75e5 | 1.95e6 | 2.44e6 | inactive |
| snRNP-U1-C | DRSC15804 | 2.40e5 | 2.80e5 | 3.59e6 | 2.85e6 | inactive |
| Rpt5 | DRSC16842 | 20671 | 48033 | 4.12e5 | 4.22e5 | inactive |
| Rpt5 | DRSC26269 | 2.43e5 | 2.77e5 | 3.77e5 | 4.86e5 | inactive |
| CG32280 | DRSC08024 | 1.53e5 | 1.69e5 | 3.08e5 | 3.00e5 | inactive |
| CG12661 | DRSC17864 | 1.94e5 | 1.89e5 | 2.42e6 | 3.19e6 | inactive |
| CG12661 | DRSC29244 | 5.08e5 | 3.78e5 | 1.83e6 | 1.36e6 | inactive |
| FBXO11 | DRSC16497 | 49558 | 28513 | 2.99e5 | 3.26e5 | inactive |
| CkIIbeta2 | DRSC07361 | 81271 | 90424 | 1.10e6 | 1.22e6 | inactive |
| CkIIbeta2 | DRSC36774 | – | – | – | – | inactive |
| cmpy | DRSC11701 | 5.61e5 | 4.21e5 | 2.68e6 | 2.44e6 | inactive |
| CG3502 | DRSC04381 | 8.15e5 | 6.90e5 | 1.36e6 | 1.04e6 | inactive |
| Mur11Da | DRSC18960 | 8.60e5 | 1.92e5 | 6.35e5 | 1.70e5 | inactive |
| Meics | DRSC11413 | 2.42e5 | 1.87e5 | 2.16e6 | 1.30e6 | inactive |
| Meics | DRSC29541 | 3.99e5 | 2.42e5 | 7.05e5 | 7.05e5 | inactive |
| CG31832 | DRSC22067 | 4.92e5 | 4.74e5 | 2.81e6 | 1.60e6 | inactive |
| CG31832 | DRSC26012 | 3.51e5 | 3.87e5 | 7.67e5 | 8.07e5 | inactive |
| rhea | DRSC11300 | 1.80e5 | 1.72e5 | 2.98e6 | 2.38e6 | inactive |
| CG11626 | DRSC14336 | 2.42e5 | 3.67e5 | 3.06e6 | 3.59e6 | inactive |
| eIF3a | DRSC12339 | 74629 | 1.02e5 | 2.23e6 | 1.52e6 | inactive |
| eIF3a | DRSC28481 | 4.06e5 | 5.87e5 | 4.61e5 | 9.69e5 | inactive |
| CG10171 | DRSC09711 | 5.81e5 | 6.42e5 | 1.00e6 | 9.21e5 | inactive |
| CG10171 | DRSC26279 | 3.40e5 | 2.90e5 | 5.06e5 | 3.38e5 | inactive |
| aurA | DRSC16905 | 1.62e5 | 1.76e5 | 2.00e6 | 2.54e6 | inactive |
| aurA | DRSC27171 | 2.06e5 | 1.77e5 | 6.63e5 | 6.18e5 | active |
| santa-maria | DRSC00994 | 1.95e5 | 1.88e5 | 2.99e5 | 2.39e5 | inactive |
| santa-maria | DRSC02180 | 9.11e5 | 1.31e6 | 1.62e6 | 1.92e6 | inactive |
| Qsox2 | DRSC15287 | 66168 | 60036 | 4.91e5 | 4.48e5 | inactive |
| Qsox2 | DRSC26634 | 3.54e5 | 3.02e5 | 6.86e5 | 6.72e5 | inactive |
| dmrt99B | DRSC22977 | 7.82e5 | 7.48e5 | 9.82e5 | 1.29e6 | inactive |
| dmrt99B | DRSC25777 | 2.03e5 | 2.26e5 | 6.34e5 | 4.81e5 | inactive |
| CG10444 | DRSC05990 | 1.15e6 | 1.03e6 | 1.46e6 | 1.27e6 | inactive |

Entries above with an active call:
| gene | dsRNA | firefly reporter light, replicate 1 | firefly reporter light, replicate 2 | Renilla control light, replicate 1 | Renilla control light, replicate 2 | outcome |
| --- | --- | --- | --- | --- | --- | --- |
| aurA | DRSC27171 | 2.06e5 | 1.77e5 | 6.63e5 | 6.18e5 | active |
